{"source": "PubChem BioAssay AID743121 (NCATS, 2013)", "test": "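Partners whose loss is lethal together with topoisomerase I blockade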 (primary screen)", "cell system": "MDA-MB-231 cells, a human breast cancer line", "reagents": "single siRNA against human genes, 20 nM siRNA (0.8 pmol per well)", "duration": "120 h (drug added 48 h after transfection, read 72 h later)", "treatment": "camptothecin 20 nM (about EC30) for 72 h; vehicle 0.1% DMSO in parallel plates", "read-out": "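CellTiter-Glo ATP signal, scaled to control siRNA as percent viability; sensitisation given as log2 of untreated divided by camptothecin-treated viability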", "direction": "log2 vehicle/camptothecin viability: higher = stronger sensitisation to camptothecin; viability with camptothecin: higher = more viable cells", "units": "viability with camptothecin in % of control", "rule for the call": "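Each gene scored by redundant siRNA activity (RSA) over its individual siRNA ratios; a gene is called active at p < 0.001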", "note": "Shown is an unselected part of about 26,000 reagents. In the full data, 167 (0.63%) were called active. 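Calls are per gene from RSA p-values that are not deposited; an individual active-marked siRNA can sensitise only weakly.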 The numbers tell different reagents against one gene apart. Further read-outs or replicates are left out here."}
{"gene knocked down": "RNF10 (GeneID 9921)", "siRNA no.": 1, "log2 vehicle/camptothecin viability": -0.409, "viability with camptothecin": 75.5, "Call": "inactive"}
{"gene knocked down": "RNF10 (GeneID 9921)", "siRNA no.": 2, "log2 vehicle/camptothecin viability": -0.464, "viability with camptothecin": 45.1, "Call": "inactive"}
{"gene knocked down": "RNF10 (GeneID 9921)", "siRNA no.": 3, "log2 vehicle/camptothecin viability": -0.516, "viability with camptothecin": 43.6, "Call": "inactive"}
{"gene knocked down": "TRPC7 (GeneID 57113)", "siRNA no.": 1, "log2 vehicle/camptothecin viability": -0.257, "viability with camptothecin": 119, "Call": "inactive"}
{"gene knocked down": "TRPC7 (GeneID 57113)", "siRNA no.": 2, "log2 vehicle/camptothecin viability": 0.00557, "viability with camptothecin": 102, "Call": "inactive"}
{"gene knocked down": "TRPC7 (GeneID 57113)", "siRNA no.": 3, "log2 vehicle/camptothecin viability": -0.531, "viability with camptothecin": 28.7, "Call": "inactive"}
{"gene knocked down": "TRPC7 (GeneID 57113)", "siRNA no.": 4, "log2 vehicle/camptothecin viability": 1.06, "viability with camptothecin": 17.5, "Call": "inactive"}
{"gene knocked down": "PYROXD1 (GeneID 79912)", "siRNA no.": 1, "log2 vehicle/camptothecin viability": -0.346, "viability with camptothecin": 105, "Call": "inactive"}
{"gene knocked down": "PYROXD1 (GeneID 79912)", "siRNA no.": 2, "log2 vehicle/camptothecin viability": -0.48, "viability with camptothecin": 66.5, "Call": "inactive"}
{"gene knocked down": "PYROXD1 (GeneID 79912)", "siRNA no.": 3, "log2 vehicle/camptothecin viability": -0.114, "viability with camptothecin": 92.9, "Call": "inactive"}
{"gene knocked down": "PYROXD1 (GeneID 79912)", "siRNA no.": 4, "log2 vehicle/camptothecin viability": -0.0524, "viability with camptothecin": 99.3, "Call": "inactive"}
{"gene knocked down": "FBP1 (GeneID 2203)", "siRNA no.": 1, "log2 vehicle/camptothecin viability": -0.586, "viability with camptothecin": 105, "Call": "inactive"}
{"gene knocked down": "FBP1 (GeneID 2203)", "siRNA no.": 2, "log2 vehicle/camptothecin viability": -0.0779, "viability with camptothecin": 50.9, "Call": "inactive"}
{"gene knocked down": "FBP1 (GeneID 2203)", "siRNA no.": 3, "log2 vehicle/camptothecin viability": -0.319, "viability with camptothecin": 70.8, "Call": "inactive"}
{"gene knocked down": "FBP1 (GeneID 2203)", "siRNA no.": 4, "log2 vehicle/camptothecin viability": 0.179, "viability with camptothecin": 68.2, "Call": "inactive"}

The list goes on; the last 4 above are carried over.
{"gene knocked down": "FBP1 (GeneID 2203)", "siRNA no.": 1, "log2 vehicle/camptothecin viability": -0.586, "viability with camptothecin": 105, "Call": "inactive"}
{"gene knocked down": "FBP1 (GeneID 2203)", "siRNA no.": 2, "log2 vehicle/camptothecin viability": -0.0779, "viability with camptothecin": 50.9, "Call": "inactive"}
{"gene knocked down": "FBP1 (GeneID 2203)", "siRNA no.": 3, "log2 vehicle/camptothecin viability": -0.319, "viability with camptothecin": 70.8, "Call": "inactive"}
{"gene knocked down": "FBP1 (GeneID 2203)", "siRNA no.": 4, "log2 vehicle/camptothecin viability": 0.179, "viability with camptothecin": 68.2, "Call": "inactive"}
{"gene knocked down": "RHO (GeneID 6010)", "siRNA no.": 1, "log2 vehicle/camptothecin viability": -0.673, "viability with camptothecin": 100, "Call": "inactive"}
{"gene knocked down": "RHO (GeneID 6010)", "siRNA no.": 2, "log2 vehicle/camptothecin viability": 0.105, "viability with camptothecin": 61.4, "Call": "inactive"}
{"gene knocked down": "RHO (GeneID 6010)", "siRNA no.": 3, "log2 vehicle/camptothecin viability": -0.212, "viability with camptothecin": 136, "Call": "inactive"}
{"gene knocked down": "RHO (GeneID 6010)", "siRNA no.": 4, "log2 vehicle/camptothecin viability": -0.385, "viability with camptothecin": 74.1, "Call": "inactive"}
{"gene knocked down": "COL8A1 (GeneID 1295)", "siRNA no.": 1, "log2 vehicle/camptothecin viability": -0.593, "viability with camptothecin": 66.7, "Call": "inactive"}
{"gene knocked down": "COL8A1 (GeneID 1295)", "siRNA no.": 2, "log2 vehicle/camptothecin viability": -0.129, "viability with camptothecin": 91.4, "Call": "inactive"}
{"gene knocked down": "COL8A1 (GeneID 1295)", "siRNA no.": 3, "log2 vehicle/camptothecin viability": 0.0554, "viability with camptothecin": 33.9, "Call": "inactive"}
{"gene knocked down": "ADAM7 (GeneID 8756)", "siRNA no.": 1, "log2 vehicle/camptothecin viability": -0.211, "viability with camptothecin": 108, "Call": "inactive"}
{"gene knocked down": "ADAM7 (GeneID 8756)", "siRNA no.": 2, "log2 vehicle/camptothecin viability": -0.055, "viability with camptothecin": 98.9, "Call": "inactive"}
{"gene knocked down": "ADAM7 (GeneID 8756)", "siRNA no.": 3, "log2 vehicle/camptothecin viability": 0.281, "viability with camptothecin": 89.3, "Call": "inactive"}
{"gene knocked down": "ADAM7 (GeneID 8756)", "siRNA no.": 4, "log2 vehicle/camptothecin viability": -0.0133, "viability with camptothecin": 89.3, "Call": "inactive"}
{"gene knocked down": "WNT1 (GeneID 7471)", "siRNA no.": 1, "log2 vehicle/camptothecin viability": -0.318, "viability with camptothecin": 130, "Call": "inactive"}
{"gene knocked down": "WNT1 (GeneID 7471)", "siRNA no.": 2, "log2 vehicle/camptothecin viability": -0.152, "viability with camptothecin": 91, "Call": "inactive"}
{"gene knocked down": "WNT1 (GeneID 7471)", "siRNA no.": 3, "log2 vehicle/camptothecin viability": -0.496, "viability with camptothecin": 104, "Call": "inactive"}
{"gene knocked down": "ERBB2 (GeneID 2064)", "siRNA no.": 1, "log2 vehicle/camptothecin viability": -0.356, "viability with camptothecin": 120, "Call": "inactive"}
{"gene knocked down": "ERBB2 (GeneID 2064)", "siRNA no.": 2, "log2 vehicle/camptothecin viability": -0.0817, "viability with camptothecin": 79.8, "Call": "inactive"}
{"gene knocked down": "ERBB2 (GeneID 2064)", "siRNA no.": 3, "log2 vehicle/camptothecin viability": 0.0601, "viability with camptothecin": 37.9, "Call": "inactive"}
{"gene knocked down": "ERBB2 (GeneID 2064)", "siRNA no.": 4, "log2 vehicle/camptothecin viability": -0.139, "viability with camptothecin": 58.6, "Call": "inactive"}
{"gene knocked down": "PRKX (GeneID 5613)", "siRNA no.": 1, "log2 vehicle/camptothecin viability": -0.221, "viability with camptothecin": 78.6, "Call": "inactive"}
{"gene knocked down": "PRKX (GeneID 5613)", "siRNA no.": 2, "log2 vehicle/camptothecin viability": -0.159, "viability with camptothecin": 19.3, "Call": "inactive"}
{"gene knocked down": "PRKX (GeneID 5613)", "siRNA no.": 3, "log2 vehicle/camptothecin viability": -0.175, "viability with camptothecin": 106, "Call": "inactive"}
{"gene knocked down": "PRKX (GeneID 5613)", "siRNA no.": 4, "log2 vehicle/camptothecin viability": -0.198, "viability with camptothecin": 107, "Call": "inactive"}
